Experimental data from publication PMC7145602.
Numbering of substitutions follows the chain as printed. Results are given in words; binding and its absence hold for the method and conditions named. For part of these data: A result given as binding can be weak or reduced; the word gives no strength. Where a sequence is shown, tags or fusion partners need not be part of it. For part of these data: In cells and extracts the contact can be indirect. Values belong to the substance of their own block, whether it stands above or below them.

Assays:
[1] = molecular target: T1, Flag-Regnase-1 (mouse) (UniProt Q5D1E7); test: co-IP; anti-Flag antibody on protein G magnetic beads, lysates of transfected HeLa cells (0.1% NP-40, 150 mM NaCl, 10 mM Tris-HCl pH 8.0), 3 h at 4°C; Flag-Regnase-1 precipitated, UPF1 constructs blotted; λ protein phosphatase treatment of lysates and SMG1 knockdown are said to reduce or inhibit the association
T1 sequence: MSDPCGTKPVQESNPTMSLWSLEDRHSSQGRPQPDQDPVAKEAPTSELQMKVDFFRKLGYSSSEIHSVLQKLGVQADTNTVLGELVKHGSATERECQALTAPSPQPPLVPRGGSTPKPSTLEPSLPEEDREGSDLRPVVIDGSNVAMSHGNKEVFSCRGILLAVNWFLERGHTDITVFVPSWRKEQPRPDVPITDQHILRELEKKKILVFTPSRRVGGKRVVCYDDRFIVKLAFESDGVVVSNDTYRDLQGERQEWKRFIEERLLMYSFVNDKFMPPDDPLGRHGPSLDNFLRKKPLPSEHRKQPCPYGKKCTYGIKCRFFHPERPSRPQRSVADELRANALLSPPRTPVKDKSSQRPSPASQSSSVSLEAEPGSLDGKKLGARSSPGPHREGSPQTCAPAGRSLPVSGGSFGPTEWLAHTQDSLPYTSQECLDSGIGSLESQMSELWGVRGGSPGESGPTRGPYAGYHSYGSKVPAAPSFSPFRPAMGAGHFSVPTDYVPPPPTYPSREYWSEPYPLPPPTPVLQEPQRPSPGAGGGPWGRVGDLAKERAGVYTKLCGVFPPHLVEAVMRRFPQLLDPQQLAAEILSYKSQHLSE

[2] = molecular target: T2, GST-Regnase-1 (mouse) (UniProt Q5D1E7); test: pull-down; GST-Regnase-1 incubated with HA-UPF1 in 0.1% NP-40, 10 mM Tris-HCl pH 8.0, 150 mM NaCl, 5 mM Mg(OAc)2, 5 mM ZnCl2, 1 mM DTT, 10% glycerol, 1 h at r.t.; Glutathione Sepharose 1 h at 4°C; western blot; both purified
T2 sequence: T1 sequence

[3] = molecular target: T3, Flag-Regnase-1 K257A/R258A (KRAA) mutant (mouse) (UniProt Q5D1E7); test: co-IP; anti-Flag antibody on protein G magnetic beads, lysates of transfected HeLa cells (0.1% NP-40, 150 mM NaCl, 10 mM Tris-HCl pH 8.0), 3 h at 4°C; Flag-Regnase-1 precipitated, UPF1 constructs blotted; λ protein phosphatase treatment of lysates and SMG1 knockdown are said to reduce or inhibit the association
T3 sequence: T1 sequence with K257A, R258A

[4] = molecular target: T4, GFP-UPF1-(6–429)-T28E (human) (UniProt Q92900); test: co-IP; anti-GFP antibody on protein G magnetic beads, lysates of transfected HeLa cells (0.1% NP-40, 150 mM NaCl, 10 mM Tris-HCl pH 8.0), 3 h at 4°C; GFP-UPF1 fragments precipitated
T4 sequence: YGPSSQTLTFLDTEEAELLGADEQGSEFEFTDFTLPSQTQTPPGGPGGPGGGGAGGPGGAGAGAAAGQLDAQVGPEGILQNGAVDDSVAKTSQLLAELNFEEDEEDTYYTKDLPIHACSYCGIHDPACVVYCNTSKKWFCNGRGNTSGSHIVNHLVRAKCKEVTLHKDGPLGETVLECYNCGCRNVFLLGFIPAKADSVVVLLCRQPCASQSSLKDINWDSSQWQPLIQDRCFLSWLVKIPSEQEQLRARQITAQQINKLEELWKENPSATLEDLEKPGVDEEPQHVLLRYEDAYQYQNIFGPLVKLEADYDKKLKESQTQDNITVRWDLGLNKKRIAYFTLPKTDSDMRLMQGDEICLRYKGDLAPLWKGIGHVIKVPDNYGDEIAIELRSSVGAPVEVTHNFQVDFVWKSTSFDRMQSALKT

[5] = molecular target: T5, SBP-GFP-UPF1-(610–914) (pEFh-SBP-GFP-hUPF1-(610–914)) (human) (UniProt Q92900); test: as above
T5 sequence: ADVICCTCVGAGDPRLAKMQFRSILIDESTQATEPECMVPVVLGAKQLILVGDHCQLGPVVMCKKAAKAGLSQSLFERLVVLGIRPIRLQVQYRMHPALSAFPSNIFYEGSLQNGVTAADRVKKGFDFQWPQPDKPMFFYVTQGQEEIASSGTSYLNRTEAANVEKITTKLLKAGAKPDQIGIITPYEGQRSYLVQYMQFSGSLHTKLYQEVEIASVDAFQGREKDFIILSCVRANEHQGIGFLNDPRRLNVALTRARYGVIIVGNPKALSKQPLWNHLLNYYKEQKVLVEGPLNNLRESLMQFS

binding [1]: no binding
Substance: HA-UPF1-T28A (pSR-HA-hUPF1-T28A) (from UniProt Q92900-2)

binding [2]: binds | binding [3]: no binding | binding [1]: binds
Substance: HA-UPF1-T28E (pSR-HA-hUPF1-T28E) (from UniProt Q92900-2)

binding [4]: binds
Substance: Regnase-1-mCherry deletion mutant with the RNase domain (130–300) (from UniProt Q5D1E7) (domain or fragment)

binding [5]: binds
Substance: Regnase-1-mCherry deletion mutant with the structurally disordered region (90–130) (from UniProt Q5D1E7) (domain or fragment)
